Experimental data as given in article PMC6675892, “Hepatitis B Virus X Protein Function Requires Zinc Binding” (Journal of Virology, 2019).
These are yes or no findings as the source states them, for the method shown. Values belong to the substance of their own block, whether it stands above or below them.

The chains behind the UniProt entries cited, without tags or fusion partners. Residues count along the entry.
UniProt Q16531: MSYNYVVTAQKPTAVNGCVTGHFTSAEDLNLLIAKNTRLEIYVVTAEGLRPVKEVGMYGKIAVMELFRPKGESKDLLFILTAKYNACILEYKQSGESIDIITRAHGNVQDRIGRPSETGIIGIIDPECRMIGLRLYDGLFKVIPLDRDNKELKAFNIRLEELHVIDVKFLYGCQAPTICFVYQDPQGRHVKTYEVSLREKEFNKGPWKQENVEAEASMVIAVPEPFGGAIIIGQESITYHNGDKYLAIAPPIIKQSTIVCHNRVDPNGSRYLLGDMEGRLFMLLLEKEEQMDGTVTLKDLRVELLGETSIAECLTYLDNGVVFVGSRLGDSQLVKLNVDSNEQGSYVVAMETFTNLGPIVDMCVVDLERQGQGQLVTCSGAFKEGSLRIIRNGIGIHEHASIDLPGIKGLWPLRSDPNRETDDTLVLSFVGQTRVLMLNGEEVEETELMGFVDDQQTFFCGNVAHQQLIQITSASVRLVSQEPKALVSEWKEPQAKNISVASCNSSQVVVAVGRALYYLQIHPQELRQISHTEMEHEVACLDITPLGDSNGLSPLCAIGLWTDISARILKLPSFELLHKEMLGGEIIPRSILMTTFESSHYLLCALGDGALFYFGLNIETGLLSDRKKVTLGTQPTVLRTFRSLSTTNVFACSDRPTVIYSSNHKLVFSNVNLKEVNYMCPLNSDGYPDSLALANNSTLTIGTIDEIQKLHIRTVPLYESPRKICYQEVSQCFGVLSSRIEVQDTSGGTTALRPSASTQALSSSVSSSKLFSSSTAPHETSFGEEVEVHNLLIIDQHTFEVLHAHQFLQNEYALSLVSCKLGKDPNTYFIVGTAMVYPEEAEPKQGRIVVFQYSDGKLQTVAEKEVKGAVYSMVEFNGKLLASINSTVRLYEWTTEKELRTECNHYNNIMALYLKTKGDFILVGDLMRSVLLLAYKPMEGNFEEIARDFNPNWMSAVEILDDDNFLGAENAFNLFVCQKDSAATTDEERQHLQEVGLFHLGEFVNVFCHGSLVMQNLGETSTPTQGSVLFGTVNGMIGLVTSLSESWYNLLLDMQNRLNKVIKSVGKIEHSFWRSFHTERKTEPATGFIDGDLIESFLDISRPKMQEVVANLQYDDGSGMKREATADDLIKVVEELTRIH
UniProt P11207: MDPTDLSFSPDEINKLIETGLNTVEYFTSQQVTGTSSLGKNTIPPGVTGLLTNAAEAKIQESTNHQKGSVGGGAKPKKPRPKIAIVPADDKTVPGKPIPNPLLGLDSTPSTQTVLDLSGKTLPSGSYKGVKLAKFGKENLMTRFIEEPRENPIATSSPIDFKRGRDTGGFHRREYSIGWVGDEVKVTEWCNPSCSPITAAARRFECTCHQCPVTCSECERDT
UniProt P02769, residues 25-607: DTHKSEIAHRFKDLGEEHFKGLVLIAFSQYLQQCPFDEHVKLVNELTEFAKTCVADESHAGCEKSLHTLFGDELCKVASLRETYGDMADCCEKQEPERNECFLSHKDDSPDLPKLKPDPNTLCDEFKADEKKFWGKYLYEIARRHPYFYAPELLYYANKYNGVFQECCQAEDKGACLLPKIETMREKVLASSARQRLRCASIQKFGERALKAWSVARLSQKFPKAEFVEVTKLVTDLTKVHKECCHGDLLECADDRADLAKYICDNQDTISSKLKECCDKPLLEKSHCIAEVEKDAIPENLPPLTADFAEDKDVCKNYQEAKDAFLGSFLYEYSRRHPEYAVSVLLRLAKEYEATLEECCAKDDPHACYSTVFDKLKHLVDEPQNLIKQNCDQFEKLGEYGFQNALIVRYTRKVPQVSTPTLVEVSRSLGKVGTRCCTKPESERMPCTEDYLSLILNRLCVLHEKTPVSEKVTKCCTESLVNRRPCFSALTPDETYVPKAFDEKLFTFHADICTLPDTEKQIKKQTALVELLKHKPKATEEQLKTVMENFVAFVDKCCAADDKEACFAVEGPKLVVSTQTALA

Tests used:
[1] = biological target: DDB1 (UniProt Q16531); experiment: AUC; sedimentation velocity at 20 C, absorbance at 280 nm, c(s) distribution (SEDFIT), each protein in its final storage buffer; both purified
[2] = biological target: SV5-V (paramyxovirus SV5) (UniProt P11207); experiment: as above
[3] = biological target: T1, GST-DDB1 (UniProt Q16531 1-1140); experiment: AlphaScreen or HTRF; TR-FRET competition; 3 nM coexpressed His-HBx:GST-DDB1 complex preincubated with increasing untagged competitor 1 h at room temperature; Eu-cryptate anti-His and d2 anti-GST antibodies; 20 mM HEPES pH 7.2, 50 mM NaCl, 0.1 mg/ml BSA, 0.01% Brij-35, 0.5 mM TCEP; both purified
T1 construct: also called glutathione S-transferase (GST)-DDB1; not shown: GST, N-terminal, kept

[4] = biological target: T1, GST-DDB1; experiment: AlphaScreen or HTRF; TR-FRET competition; 5 nM His-HBx and 5 nM GST-DDB1 expressed separately, preincubated with increasing untagged competitor 30 min at room temperature; Eu-cryptate anti-His and d2 anti-GST antibodies; 25 mM HEPES pH 7.2, 400 mM NaCl, 0.1 mg/ml BSA, 0.01% Brij-35, 0.5 mM TCEP; both purified

binding [1]: no binding
Substance: DDB1 (from UniProt Q16531 1-1140) (other; other documents disagree on this pair)

Substance: SV5-V (from UniProt P11207 1-222)
binding [2]: no binding

binding [3]: no binding (tested: >100,000 nM)
binding [4]: no binding (tested: >3,000 nM)
Substance: bovine serum albumin (from UniProt P02769 25-607)
